# The campaign covered roughly 52,000 sequences. About 210 (0.4%) were called active.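 Rule for the calls: active = gene whose silencing raises cell survival under the drug, median off-target-corrected z-score across its silencing RNAs 2 or more; inactive = the rest.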 The list shows a part of the results.
# Test: Resistance to Poly (ADP-Ribose) Polymerase inhibitor: Gene Identification via Genome-wide siRNA Screen
# Settings: mouse BRCA2 R2336H ES cells, olaparib, CellTiter-Glo viability; stronger effect = higher value
# Outline: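 Mouse BRCA2 R2336H ES cells were reverse-transfected with siRNA (20 nM final), treated at 48 h with 500 nM olaparib, and read by CellTiter-Glo after 72 h. Scores: MAD-based z per siRNA, median per gene, seed off-target correction.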
row,Sequence,z-score
1,GGAGUCUACCAUGUGAUCUTT against 2410001H17Rik,inactive: -1.79
2,GGGUUUUUCAAGAUAAACCTT against Nudt2,inactive: -0.0764
3,GGAAUCUGCUGAGGUUUAUTT against Cidea,inactive: 0.313
4,GGACAUGACCUUAUUUGGATT against F2rl3,inactive: -0.311
5,CUUACCACCCUGAGUUUCATT against Olfr1066,inactive: -0.625
6,GGUCUACGCGCUCUAUGAATT against Gpr150,inactive: -0.59
7,GGAGGUUUUUUUGUUUUGUTT against Serpinb13,inactive: 0.331
8,GCAACUAUACUGGACAAUUTT against Olfr328,inactive: -1.64
9,GGUGAUGUGGGUCUUGUGATT against Leng4,inactive: -1.45
10,GUUCGUGCGGGACAUGAUCTT against Rpl36,inactive: -3.11
11,GGUUUGUUUUUGUUCGUUUTT against Pscdbp,inactive: 0.518
12,CCACAUACUCUAAUGAAGUTT against Casp1,inactive: -0.154
13,GCUUCAUAUUGCUAGGAAATT against Chrd,inactive: -0.0253
14,GCAGAUGCGCUUGGAACUUTT against Pde4b,inactive: 2.25
15,GCGACUGGGAGAGAUAAGATT against A130022J15Rik,inactive: 1.03
16,GGGAGGGUGUGCAAAAGUUTT against Arf4l,inactive: -0.928
17,CCUUGGCAGGUAUAGUGUUTT against 1200016C12Rik,inactive: -0.753
18,GGAAGGAUGAUUUUCAGAUTT against Mcf2,inactive: 0.49
19,CCUUAUACGAAUGCCAUUCTT against Eed,inactive: 0.678
20,GGAUUCGAGCAGUUAGUGATT against Ikbkg,inactive: -0.302
21,GCGUAUUGGGCAGAUCAAATT against Slit1,inactive: 0.0897
22,GGUGACAUAUUUGAAGUGGTT against Dmwd,inactive: -0.372
23,GGUCGUUCAGAAGCACCAGTT against 2410004H02Rik,inactive: -0.0483
24,CCGUCAAUCUUUAUACCACTT against Frzb,inactive: -0.326
25,GGCGUAUUUGUCAUUUCUUTT against AV340375,inactive: -1.16
26,GACCCUGUCCUACAUGUUATT against 2900027G03Rik,inactive: 0.787

row,Sequence,z-score
1,GGGCUCUGUGGAAAUCAUGTT against AB030190,inactive: 1.79
2,GGAACUGUUGAAGAAACUGTT against 1700080E11Rik,inactive: -0.0208
3,GGGCAAAAACAAGCAAAAATT against D15Ertd366e,inactive: 1.15
4,UGUCAACUGACUGUAGUAATT against Zmynd12,inactive: 1.31
5,GCAUGCGCAUGUCAUUGAATT against Zdhhc1,inactive: -0.278
6,GGCUGCAAGCAAAAAUAGATT against 1700029J07Rik,inactive: -0.432
7,CCCAGCUAUGCGAUCUUAATT against 1300003B13Rik,inactive: -1.51
8,GGACUGUUGUAUUUGUGUGTT against Bmper,inactive: -0.936
9,CCACAAUUACCCAGUAUGATT against Olfr498,inactive: 0.677
10,GCACUUACCUAACACUAUCTT against Sva,inactive: 0.172
11,GGAGAAAACUCAUGGCCCUTT against Prkag3,inactive: 1.12
12,CCUACGAGUUCAUCGUGUATT against 5730438N18Rik,inactive: -1.51
13,CGAAGACGUAAUUACGAAATT against 2610311B01Rik,inactive: 0.0445
14,CGACUCUUGCCUGUUCGUGTT against Thsd6,inactive: -1.34
15,GCAAGACAAGUUCUACGAUTT against Csad,inactive: 0.728
16,GGUAAGUUAAAUGAUGACATT against 5830402J09,inactive: -1.79
17,CCUUUUAAGUUCCUCCCACTT against Pdxp,inactive: 0.634
18,GCUCCUCACUUAUUGCCCATT against Zfp354b,inactive: -0.0507
19,GCGUGGAUCAACUCAUGGATT against Apoa1bp,inactive: 0.777
20,GGCUUUUGAGCUGGUCUUCTT against Ntn3,inactive: -0.649
21,GGAAAGCAGACUUCUAAAGTT against Pdgfc,inactive: 0.43
22,GGCAGAUCAUUGGAUUCUATT against 0610009M14Rik,inactive: -2.06
23,GAAGAGAAUGGAGAGAGAGTT against Vpreb2,inactive: -0.0536
24,GCCUGCUUUGGAAAAAUCATT against Akr1c12,inactive: 0.374
25,GGACGUGAAGUGAAGUCAUTT against 1810009N02Rik,inactive: 3.33
26,CCUCAGGUGUGUUUACAACTT against A230083G16Rik,inactive: 0.61

row,Sequence,z-score
1,CCCACAGGACUCAUUAACATT against Rab4a,inactive: 1.36
2,GGAAUAUCUUCUGAUUGUCTT against Dncl2b,inactive: -2.18
3,CGUAAGGCCUAAGGUUAUUTT against Leng1,inactive: -0.274
4,GGAUCUACUAGGAAAGAAATT against Serpini1,inactive: -1.9
5,GCCUUUAUACAAUUAGACUTT against Has3,inactive: 1.28
6,GGCCAACAUGCUAUACUUCTT against Stat2,inactive: -0.117
7,GCUUAAGUGCAGUAAUAUCTT against 4932411N23Rik,inactive: 0.0708
8,CCAGAAAUUGACAAAAAGUTT against Etfa,inactive: 0.881
9,GCCGAUGAACCAAUGGAACTT against Psma1,inactive: -1.42
10,GGAACCAAUCAGUUGGUUATT against Taf7,inactive: 1.04
11,CGUAUUUUUACUGGUUGGGTT against LOC381062,inactive: -0.378
12,GGAGAUCUUCAACUGCCACTT against Rps6kl1,inactive: 0.463
13,GGGAGUGUAUAAACCUCGGTT against Vdac2,inactive: 0.613
14,GAUAUGUGCACAAUUCUGCTT against V1ri4,inactive: -0.638
15,GGAAAAACAAAUUCAGCAUTT against Suhw3,inactive: 0.586
16,GCCUAGAAUCAAUGGAACCTT against Olfr402,inactive: 1.06
17,GGCAGAAGACCAAAAUUGGTT against Pmm2,inactive: -0.489
18,GGUGCUCUCAAGUGGGAUUTT against 4921507A12,inactive: 0.135
19,GGUUUCCAACAACAUCAAATT against Hsd17b12,inactive: 1.7
20,CCUCCUUUUAGACAGAUGCTT against LOC245297,inactive: -0.431
21,CCUGAUACUAACAAGGAAATT against Afmid,inactive: 0.96
22,GGGUGUUCUACAGAAAUGATT against Orc5l,inactive: -0.885
23,GGCAUAUGUUGAAACUAUUTT against 2310045A20Rik,inactive: 0.327
24,GGUUUUCCCACUCUUUCACTT against 1200011M11Rik,inactive: 0.419
25,GGACAAGUAUAGCCAUCUUTT against Spag7,inactive: -1.04
26,GCUUGGUUGGCCUUUUCCATT against Olfr320,inactive: 0.358

# Another view of some results above:
row	Sequence	z-score
2	GGAAUAUCUUCUGAUUGUCTT against Dncl2b	inactive: -2.18
6	GGCCAACAUGCUAUACUUCTT against Stat2	inactive: -0.117
10	GGAACCAAUCAGUUGGUUATT against Taf7	inactive: 1.04
15	GGAAAAACAAAUUCAGCAUTT against Suhw3	inactive: 0.586
18	GGUGCUCUCAAGUGGGAUUTT against 4921507A12	inactive: 0.135
23	GGCAUAUGUUGAAACUAUUTT against 2310045A20Rik	inactive: 0.327

# The list continues.

row,Sequence,z-score
1,GGGAGAAAGAUUGUAACUATT against 1110032A03Rik,inactive: -0.819
2,CCUUAUCCAGACAUAGAUUTT against BC027344,inactive: 0.287
3,GGUCCCUUCUUCUCAAGGUTT against Olfr1,inactive: 1.82
4,CCCAGGACAAAAUAGUGUCTT against Olfr164,inactive: 0.807
5,GGAAAAAGACCACAGCCAGTT against Oaz3,inactive: -1.12
6,GCACUCGUCGUUUGGCUAUTT against Pitx1,inactive: -1.18
7,GGCCCUGUAGAAGACAAUGTT against Plxna1,inactive: -0.772
8,GGACACCAUUGGCUCCUUATT against 2010004O20Rik,inactive: -1.65
9,GGAAGAAAACAAAGACGGCTT against Mxd4,inactive: 0.485
10,GGCCUAUUGUAAAAACCCATT against Taf1b,inactive: -1.03
11,GGUUUUGAAGUGAUUGAAGTT against Tjp2,inactive: -0.548
12,GGGACGUGUUAAAAAGGGCTT against Cldn5,inactive: 1.61
13,CGAGACUAACCUUUAGUUATT against AI661017,inactive: -0.0544
14,GGUUUCAUUUGGAUUUGCATT against 3930401K13Rik,inactive: -0.475
15,GGAUUGUUCUUUCUUUCUCTT against Stac,inactive: 0.619
16,GGGUAAACUAUUUGUUGUUTT against Arl6ip6,inactive: -0.282
17,GCUGAGCUGCGCUUAUUGGTT against Fes,inactive: 0.319
18,GGUGUGAAAAGAGGAGGAGTT against Zfp71-rs1,inactive: -1.08
19,GGAGGAUAAGGAUACAGUATT against Cspg5,inactive: -1.3
20,CGAGAAUACCAAACUCGUGTT against Dub2a,inactive: 0.0305
21,GGACAUGAGUGUCAAUUCUTT against 6330503C03Rik,inactive: 1.5
22,GGUAAGUUUGGGAACAUUGTT against 4933413B09Rik,inactive: -2.02
23,GGAAGUAACCACAUCCUAUTT against Epn2,inactive: 1.08
24,GGGAAUGGGUGUUCAUCCATT against Tnf,inactive: 0.467
25,GCCUCUCCUGUGAAUGACATT against 4933407N01Rik,inactive: -1.07
